Data: PubChem BioAssay AID1671190 (National Center for Advancing Translational Sciences (NCATS), 2021)
The campaign covered roughly 580,000 compounds. About 6,100 (1.1%) were called active. Inconclusive results, whose numbers are uncertain, are shown with a selection of clear calls. Calls follow the shape of the dose curve; as a rule, active = well fitted inhibition curve with a large enough effect; inconclusive = small, poorly fitted or top-dose-only effect, or another doubt; inactive = no such curve, though single readings can be large or run the other way. Where the call is inconclusive, the potency comes from a doubtful curve fit.

Protein sequences, listed by entry. Tags and fused reporters are not part of them.
UniProt P18054, whole entry, looked up: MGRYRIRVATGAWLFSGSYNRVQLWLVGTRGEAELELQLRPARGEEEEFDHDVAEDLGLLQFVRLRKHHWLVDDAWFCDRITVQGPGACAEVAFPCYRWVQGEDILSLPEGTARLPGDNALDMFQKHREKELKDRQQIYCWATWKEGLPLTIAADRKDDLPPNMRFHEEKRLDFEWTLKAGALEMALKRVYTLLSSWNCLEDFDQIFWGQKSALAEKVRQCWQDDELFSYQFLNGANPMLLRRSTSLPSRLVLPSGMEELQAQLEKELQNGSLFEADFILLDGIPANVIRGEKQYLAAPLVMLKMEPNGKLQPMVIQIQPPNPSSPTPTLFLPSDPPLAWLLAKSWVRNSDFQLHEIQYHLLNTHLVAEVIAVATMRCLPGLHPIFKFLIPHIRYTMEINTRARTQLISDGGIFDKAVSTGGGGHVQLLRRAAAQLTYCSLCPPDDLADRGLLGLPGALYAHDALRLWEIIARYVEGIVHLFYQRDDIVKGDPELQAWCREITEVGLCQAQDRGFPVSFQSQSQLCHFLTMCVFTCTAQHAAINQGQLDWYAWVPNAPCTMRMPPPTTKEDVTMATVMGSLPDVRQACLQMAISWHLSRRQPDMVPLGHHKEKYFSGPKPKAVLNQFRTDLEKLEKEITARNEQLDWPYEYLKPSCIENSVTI

biological target: Polyunsaturated fatty acid lipoxygenase ALOX12 (Homo sapiens) (UniProt P18054); assay: Primary qHTS assay for inhibitors of human arachidonate 12S-lipoxygenase (ALOX12): Round 2; conditions: purified 12hLO, xylenol orange hydroperoxide absorbance; activity change, negative = inhibition: at 108 µM (top of the series) unless noted
Outline: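 Purified human 12hLO (150 nM final) in 25 mM Hepes, 0.01% Triton X-100, pH 7.0 was preincubated 15 min at room temperature with compound. Then 40 uM arachidonic acid was added, 30 min. Hydroperoxide was read by Fe-XO absorbance ratio 573/405 nm.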
% is scaled to controls: 0 for no effect and ±100 for the full control effect; potency is read from the fitted curve at half-maximal effect.

SMILES	activity change, negative = inhibition	Potency
Cc1cccc(N(C)C(=O)Cc2nn(C)c(=O)c3ccccc23)c1C	inactive: -0.14%	–
O=C1CC(C(=O)Nc2ccc3c(c2)OCCO3)c2c(nc(N3CCc4ccccc4C3)[nH]c2=O)N1 (stereo not drawn)	–	inconclusive: 56.2 µM [inhibitor, single point]
COc1cccc(NC(=O)CN2CCN(CC(=O)Nc3ccccc3Cl)CC2)c1	–	inconclusive: 50.1 µM [inhibitor, partial curve, poor fit]
CC(O)c1c(-c2ccccc2)nn(C)c1Cl (stereo not drawn)	–	inconclusive: 158 µM [inhibitor, partial curve, poor fit]
COc1cccc(CN2C(=O)OC3(CCN(Cc4c[nH]c5ccccc45)CC3)C2(C)c2cccnc2)c1 (stereo not drawn)	–	inconclusive: 56.2 µM [inhibitor, single point]
O=[N+]([O-])c1ccc(CN2CCOCCOCCOCC2)cc1	–	inconclusive: 50.1 µM [inhibitor, partial curve, poor fit]
CC(C)c1ccc(OCC(=O)NNC(=S)NC(=O)c2cccs2)c(Br)c1	–	inconclusive: 44.7 µM [inhibitor, partial curve, poor fit]
CCCCN(CC)C(=O)c1cc2cc3ccc(OC)cc3nc2o1	–	inconclusive: 50.1 µM [inhibitor, partial curve, poor fit]
CCN1CCN(c2ccc(Nc3ccnc4ccccc34)cc2)CC1	–	inconclusive: 28.2 µM [inhibitor, single point]
N#CC(c1nc2ccccc2nc1N1CCCCC1)S(=O)(=O)c1cccc(Cl)c1 (stereo not drawn)	–	inconclusive: 7.94 µM [inhibitor, full curve, poor fit]
Cc1cccc(NC(=O)c2cc(-c3ccco3)nc3ccccc23)n1	–	active: 28.2 µM
O=C(O)c1cc(/C=C/c2csc(-c3ccc(Cl)cc3)n2)nc2ccccc12	–	inconclusive: 10 µM [inhibitor, full curve, poor fit]
CC(C)CC(=O)C(C#N)C(=O)NCc1ccccc1 (stereo not drawn)	–	inconclusive: 39.8 µM [inhibitor, partial curve]
OCc1ccc(CN2C[C@H](O)C[C@H]2c2nc(-c3ccc(OC(F)(F)F)cc3)no2)o1	–	inconclusive: 31.6 µM [inhibitor, full curve, poor fit]
COC(=O)CN(C(=S)Nc1ccc(F)cc1)C1CC(=O)N(c2ccc(OC)cc2)C1=O (stereo not drawn)	–	active: 31.6 µM
CCOC(=O)C1=C(C)OC2(O)c3ccccc3C(=O)C12O (stereo not drawn)	inactive: 9.82%	–
COc1ccc(NC(=O)Cn2cnc3ccc(S(=O)(=O)N4CCC(C)CC4)cc3c2=O)cc1OC	inactive: -27.7%	–
O=C(NCC(c1ccccc1)c1c[nH]c2ccccc12)c1ccccn1 (stereo not drawn)	–	inconclusive: 2.51 µM [inhibitor, full curve, poor fit]

Already shown: 5 of the compounds above.
SMILES	activity change, negative = inhibition	Potency
Cc1cccc(NC(=O)c2cc(-c3ccco3)nc3ccccc23)n1	–	active: 28.2 µM
O=C(O)c1cc(/C=C/c2csc(-c3ccc(Cl)cc3)n2)nc2ccccc12	–	inconclusive: 10 µM [inhibitor, full curve, poor fit]
CC(C)CC(=O)C(C#N)C(=O)NCc1ccccc1 (stereo not drawn)	–	inconclusive: 39.8 µM [inhibitor, partial curve]
OCc1ccc(CN2C[C@H](O)C[C@H]2c2nc(-c3ccc(OC(F)(F)F)cc3)no2)o1	–	inconclusive: 31.6 µM [inhibitor, full curve, poor fit]
COC(=O)CN(C(=S)Nc1ccc(F)cc1)C1CC(=O)N(c2ccc(OC)cc2)C1=O (stereo not drawn)	–	active: 31.6 µM
